Columns and labels:
Assay type in all cases: cell-based
A549 (lung carcinoma) = experiment: Sulforhodamine B (SRB) assay, A549; details: Homo sapiens, A549, 48 h, read-out: IC50 (µM) A549
Excerpt: (§1) Roswell Park Memorial Institute (RPMI)-1640 medium, Dulbecco’s modified eagle medium high glucose (DMEM; Gibco) supplemented with 10% Fetal Bovine Serum (FBS; Gibco, and 1% antibiotic-antimycotic (Gibco; Anti-Anti 100x), phosphate-buffered saline (PBS; Gibco), 0.25% trypsin (Gibco), sodium pyruvate (Sigma-Aldrich), HEPES (Gibco). Human cancer cell lines A549 (lung carcinoma), MCF-7 (breast carcinoma), MDAMB-231 (breast carcinoma), A375 (melanoma), and normal human embryonic kidney cells (HEK-293) were taken from Dr. Sheikh Tasduq Abdullah and Dr. Boobalan Gopu (CSIR-IIIM).
(§2) Their activity was tested against human cancer cell lines A549 (lung carcinoma), MCF-7 (breast carcinoma), MDAMB-231 (breast carcinoma), and A375 (melanoma). The selectivity index (SI) was calculated against normal human embryonic kidney cells (HEK-293) to determine cytotoxic selectivity. The cells (7 × 10^3 cells/well) were seeded on 96 well plates, followed by overnight incubation. […] The dissolved dye indicating growth inhibition was quantified by calculating optical density at 540 nm via microplate reader (Tecan infinite M200PRO, Switzerland). The IC50 values were calculated using GraphPad Prism Software Version 5.0. […] The selectivity index is calculated by using the formula. […]

MCF-7 (breast carcinoma) = experiment: Sulforhodamine B (SRB) assay, MCF-7; details: Homo sapiens, MCF7, 48 h, read-out: IC50 (µM) MCF-7
Excerpt: as §1, §2

[1] = system: MDA-MB 231 (breast carcinoma); experiment: Sulforhodamine B (SRB) assay, MDA-MB 231; details: Homo sapiens, MDA-MB-231, 48 h, read-out: IC50 (µM) MDA-MB 231
Excerpt: as §1, §2

A375 = experiment: cells; details: Homo sapiens, A-375, 48 h, read-out: IC50 (µM) A375, MTT
Protocol: (§3) Cell viability was assessed using the MTT assay, as outlined in previous studies ([Majeed et al., 2014]; [Amin et al., 2025]). Briefly, A549, A375, MCF-7 and MDA-MB231 cells (10 × 10^3 cells/well) were seeded in 96-well plates and incubated for 24 h at 37°C in a 5% CO2 atmosphere. After this incubation, the cells were treated with test compounds for another 48 h. At 44th hour of treatment, the cells were incubated with MTT (2.5 mg/mL) for additional 4 h. At 48th hour, DMSO was added (100 µL/well), to dissolve formazan crystals. Absorbance was measured at 570 nm. Cell viability was calculated relative to untreated controls. IC50 values were determined from independent triplicate experiments using GraphPad™ Prism 8.0 software. […]

A549 = experiment: cells; details: Homo sapiens, A549, 48 h, read-out: IC50 (µM) A549, MTT
Protocol: as §3

[2] = system: normal human embryonic kidney cells (HEK-293); experiment: Sulforhodamine B (SRB) assay, normal cells HEK-293; details: HEK293, 48 h, normal cell line, mean ± SD (n = 3)
Excerpt: as §1
as §2, with “Sulforhodamine B (SRB), a semi-automated colorimetric assay, was used to evaluate the anti-cancerous properties of indicated colchicine derivatives. Their” for “Their”, “selectivity.” for “selectivity. The cells (7 × 10^3 cells/well) were seeded on 96 well plates, followed by overnight incubation.”

A375 (melanoma) = experiment: Sulforhodamine B (SRB) assay, A375; details: Homo sapiens, A-375, 48 h, read-out: IC50 (µM) A375
Excerpt: as §1, §2

**Q.** For COc1cc2c(c(OC)c1OC)-c1ccc(OC)c(=O)cc1[C@@H](NC(C)=O)CC2 [Colchicine, reference compound], which IC50 (A549 (lung carcinoma)) is on record?
**A.** The IC50 was 0.174 ± 0.028 µM.

**Q.** And the IC50 (MCF-7 (breast carcinoma))?
**A.** Its IC50 is 4.44 ± 0.28 µM.

**Q.** And the IC50 [1]?
**A.** The IC50 was 4.83 ± 0.31 µM.

**Q.** And the IC50 (A375)?
**A.** Its IC50 is 0.022 ± 0.008 µM.

**Q.** And the IC50 (A549)?
**A.** Its IC50 is 0.21 ± 0.02 µM.

**Q.** What about the IC50 [2] of the same molecule?
**A.** The IC50 was 0.061 ± 0.002 µM.

**Q.** And the IC50 (A375 (melanoma))?
**A.** Its IC50 is 0.076 ± 0.01 µM.

Source: article PMC12246756 (Frontiers in Pharmacology, 2025)
